From the supplement of paper PMC8256030
“And” between values parts separate entries of the source, which are not always exact repeats. Identical values can stand only once. This is one part of the list. Repeats in this data set agree poorly, so a single value says little.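 HEK293T cells were given each compound shortly before transfection with a reporter in which red mCherry is followed by the SARS-CoV-2 frameshift element and then GFP in the −1 frame, so GFP appears only after frameshifting.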

Assays:
[1] = tested on: SARS-CoV-2 -1 PRF reporter mCherry-FSE-GFP(-1); test: mCherry (red) intensity as percent of control; higher = higher upstream reporter expression; details: 10 µM; 24 h; HEK293T
[2] = tested on: SARS-CoV-2 -1 PRF reporter mCherry-FSE-GFP(-1); test: percent effect, decrease of GFP/mCherry ratio (-1 PRF reporter) relative to controls; higher = stronger frameshift inhibition; details: 10 µM; 24 h; HEK293T

CCO/C([O-])=N/c1c[n+](N2CCOCC2)no1
mCherry [1]: 151% | percent effect [2]: 1.35%

c1ccc(C2CN3CCSC3=N2)cc1 (centres undefined)
mCherry [1]: 99.5% | percent effect [2]: 4.04%

CCOP(=O)(Cc1ccc(C(=O)Nc2ccc(Br)cc2C#N)cc1)OCC [ibrolipim]
mCherry [1]: 55.4% | percent effect [2]: -10.7%

CNc1cc(OC)c(C(=O)NC2CCN(Cc3ccccc3)C2C)cc1Cl (centres undefined) [nemonapride]
mCherry [1]: 90.3% | percent effect [2]: 0.39%

CCN(Cc1ccncc1)C(=O)C(CO)c1ccccc1 (centres undefined) [Tropicamide]
mCherry [1]: 100% | percent effect [2]: 1.04%

C[C@]12C=CC(=O)N[C@@H]1CC[C@@H]1[C@@H]2CC[C@]2(C)[C@@H](C(=O)Nc3cc(C(F)(F)F)ccc3C(F)(F)F)CC[C@@H]12 [dutasteride]
mCherry [1]: 82.2% and 93.6% | percent effect [2]: -2.57% and -8.77%

O=C(O)C1CCSCN1 (centres undefined) [omonasteine]
mCherry [1]: 103% | percent effect [2]: -0.417%

N[C@@H]1CCCCN(c2c(F)cc3c(=O)c(C(=O)O)cn(C4CC4)c3c2Cl)C1 [Besifloxacin]
mCherry [1]: 83% | percent effect [2]: -1.83%

COC(=O)CCc1ccc(OCC(O)CNC(C)C)cc1 (centres undefined) [esmolol]
mCherry [1]: 113% | percent effect [2]: 3.22%

O=C(CCCN1CCC(n2c(=S)[nH]c3ccccc32)CC1)c1ccc(F)cc1 [timiperone]
mCherry [1]: 50.5% | percent effect [2]: 3.96%

O=C(NCC(O)CO)c1c(I)c(C(=O)NCC(O)CO)c(I)c(N(CCO)C(=O)CO)c1I (centres undefined) [ioversol]
mCherry [1]: 121% | percent effect [2]: 1.99%

CN(C)CCN(Cc1cccs1)c1ccccn1 [methapyrilene]
mCherry [1]: 99.1% | percent effect [2]: -1.74%

CC(NN)c1ccccc1 (centres undefined) [mebanazine]
mCherry [1]: 68.7% | percent effect [2]: -2.46%

CCN(CC)C(=O)C1(c2ccccc2)CC1CN (centres undefined) [milnacipran]
mCherry [1]: 98.9% | percent effect [2]: -4.62%

CC(=O)OCC(=O)[C@@]1(O)CC[C@H]2[C@@H]3CCC4=CC(=O)CC[C@]4(C)[C@H]3C(=O)C[C@@]21C [Cortisone acetate]
mCherry [1]: 89.4% | percent effect [2]: 1.26%

N[C@@H](CC(=O)O)C(=O)O [aspartic acid]
mCherry [1]: 112% | percent effect [2]: -1.53%

CC(=O)O[C@@]12CO[C@@H]1C[C@H](O)[C@@]1(C)C(=O)[C@H](O)C3=C(C)[C@@H](OC(=O)[C@H](O)[C@@H](NC(=O)OC(C)(C)C)c4ccccc4)C[C@@](O)([C@@H](OC(=O)c4ccccc4)[C@H]21)C3(C)C
mCherry [1]: 121% | percent effect [2]: -1.26%

Cc1c(Cl)cccc1Nc1ncccc1C(=O)O [clonixin]
mCherry [1]: 98.9% | percent effect [2]: -4.52%

Cc1cc(-c2ccccc2)nnc1NCCN1CCOCC1 [minaprine]
mCherry [1]: 101% | percent effect [2]: -6.44%

Cc1cccc(C)c1NC(=O)C1CCCCN1C (centres undefined) [mepivacaine]
mCherry [1]: 105% | percent effect [2]: -1.5%

CC1(C)O[C@@H]2C[C@H]3[C@@H]4C[C@H](F)C5=CC(=O)C=C[C@]5(C)[C@H]4[C@@H](O)C[C@]3(C)[C@]2(C(=O)CO)O1 [Nasalide]
mCherry [1]: 113% | percent effect [2]: -7.78%

[O-][n+]1cccc(CO)c1
mCherry [1]: 92.8% | percent effect [2]: 0.191%

FC(F)(F)COCC(F)(F)F
mCherry [1]: 108% | percent effect [2]: -4.11%

CCN(CC)C(=O)C1CN2CCc3cc(OC)c(OC)cc3C2CC1OC(C)=O (centres undefined) [benzquinamide]
mCherry [1]: 101% | percent effect [2]: -9.21%

NCCS(=O)(=O)O [taurine]
mCherry [1]: 86.1% | percent effect [2]: -1.92%

O=C(NCC1CCCCN1)c1cc(OCC(F)(F)F)ccc1OCC(F)(F)F (centres undefined) [Flecainide acetate]
mCherry [1]: 83.5% | percent effect [2]: -2.92%

CCn1cc(C(=O)O)c(=O)c2cc(F)c(N3CCN(C)CC3)cc21
mCherry [1]: 93% | percent effect [2]: -2.65%

CN(C)C/C=C(/c1ccc(Br)cc1)c1cccnc1 [zimeldine]
mCherry [1]: 72% | percent effect [2]: -3.12%

NS(=O)(=O)c1ccc(C(=O)O)cc1 [carzenide]
mCherry [1]: 107% | percent effect [2]: -3.72%

NC(=O)N1CCC(CC(=O)N2CCC([C@H]3c4ncc(Br)cc4CCc4cc(Cl)cc(Br)c43)CC2)CC1 [lonafarnib]
mCherry [1]: 34.1% | percent effect [2]: -12%

O=C(O[C@@H]1C[C@@H]2C[C@H]3C[C@H](C1)N2CC3=O)c1c[nH]c2ccccc12 [dolasetron]
mCherry [1]: 96.3% | percent effect [2]: -2.32%

CO/N=C/C1=CCCN(C)C1 [milameline]
mCherry [1]: 122% | percent effect [2]: -3.1%

Cc1cc(O)cc(C)c1Cl
mCherry [1]: 109% | percent effect [2]: 2.19%

CC(C)(Oc1ccc(Cl)cc1)C(=O)O [calcium clofibrate]
mCherry [1]: 154% | percent effect [2]: 3.69%

N=C(N)n1cccn1 [praxadine]
mCherry [1]: 126% | percent effect [2]: 6.98%

Nc1ccc(C(=O)NCC(=O)O)cc1
mCherry [1]: 107% | percent effect [2]: -1.47%

O=c1[nH]c2cc(Cl)c(Cl)c([N+](=O)[O-])c2[nH]c1=O [licostinel]
mCherry [1]: 87.6% | percent effect [2]: -0.521%
